# Percent effect of library compounds

From ChEMBL document CHEMBL3988442, “University of Dundee, Small-Polar-MMV Screening Library” (2021).

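Cell assay of Leishmania donovani living inside macrophages; the read-out is not stated. Concentration: 30 µM. Higher reads as stronger inhibition (inferred: compounds with an IC50 in retests scored well above the rest). About 69,000 compounds were tested under these conditions; 1.5% (about 1,000) showed 50% or more at least once.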

Results are given as percent effect.
How 0% and 100% were set is not recorded. Most values in the screen are low, and negative values occur.
Compounds were drawn at random from those tested, without regard to their results.
Two or more numbers in one place are separate tests of the same structure; such repeats can differ widely.

structure | percent effect
CCNC(=O)NC(=O)CNC(C)(CC)c1nccs1 (centres undefined) | 4.876
[H][C@]12CNC[C@@]1(C(=O)NCCOCCO)CN(C1CCCC1)C2 | 22.33
Cc1ccc(S(=O)(=O)Cc2nsc(N(C)C)n2)c(C)c1 | 34.08
NC(=O)NC(=O)C(c1ccccc1)N1CCN(Cc2ccccc2)CC1 (centres undefined) | 41.72
COc1ccc(C(=O)Nc2ccccc2C(C)C)c(OC)n1 | 21.42
CS(=O)(=O)N1CCc2sc(C(=O)NCCc3ccccn3)cc21 | 10.94
O=C(NCCN1CCOCC1)c1ccn(-c2ccc3ccccn23)n1.O=C(O)C(F)(F)F | 29.36
Cc1cnc(N2CCc3c(CNc4ccnc(C)n4)cncc3C2)nc1.Cl | 40.08
CCn1ccnc1CN(C)C1CCCN(CCc2ccccc2)C1 (centres undefined) | 10.03
CCNC(c1ccc(C)cc1)c1cccnc1 (centres undefined) | 28.39
COC1CN(C(=O)Cc2cccs2)CCC(=O)N(C)c2ccccc21 (centres undefined) | -16.59
Cc1cc(NC(=O)CN2C(=O)CC(C)(C)c3ccccc32)no1 | 8.14
O=C(c1ccon1)N1CCCC(n2cncn2)C1 (centres undefined) | 21
Cc1cccc(NC(=O)[C@@H]2CCCN2Cc2ccccc2C#N)n1 | 7.747
CCCn1cc(S(=O)(=O)N[C@H]2CN(CC(N)=O)C[C@@H]2C2CC2)cn1 | 10.12
[H][C@@]12CCN(CC3CC3)C[C@]1(C(=O)NCCc1ccccn1)CCO2 | 19.59
O=S(=O)(Cc1ccccc1)c1nnc(N2CCOCC2)s1 | 34.65
CC[C@H](C)Nc1nccc(-c2cnc3sccn3c2=O)n1 | 12.11 and 30.89
O=C(O)C(F)(F)F.[H][C@@]12COC[C@@H](CC(=O)N3CCCC3)[C@]1([H])CN(Cc1ccc(F)cc1)C2 | 9.9
CCC1CN(C(=O)COc2ccc(C(=O)NC3CC3)cc2)CCO1 (centres undefined) | 7.577
Cc1nn(C)c(N(C)C)c1CNCc1cccc(Cn2cncn2)c1 | 22.94
CN(C)S(=O)(=O)N1CCOC(c2cccc(-c3cncnc3)n2)C1 (centres undefined) | 26.62
CCOCCCC(=O)NS(=O)(=O)c1ccc(C)s1 | 22.53
CC1CCN(c2nccn3c(=O)[nH]nc23)CC1 | 21.64
CC(Cc1ccco1)NC(=O)NCc1ncnn1C (centres undefined) | -16.15
Cc1cnn(-c2cccc(N3CCCC3)n2)c1 | 88.75
CC(C)(C)OC(=O)NC1(c2noc(-c3ccoc3)n2)CCC1 | 7.079
CO[C@H]1CN(C(=O)OC(C)(C)C)CC1NCc1cc[nH]c1 (some centres undefined) | 16.01
CCOCC1CC2(CCN(C(=O)c3ccccn3)CC2)CO1.O=C(O)C(F)(F)F (centres undefined) | -18.51
CCc1cc2cc(OC)c(OC)cc2nc1SCCN1CCCCC1.Cl | -1.58
Cc1ccc(CNC(=O)NC(C)CN2CCOCC2)s1 (centres undefined) | 7.067
CC(=O)N1CCCC(c2nc(N(C)C)ncc2-c2cccc(F)c2)C1 (centres undefined) | 0.8349
O=C1CCCC2(CCN(C(=O)c3cnccn3)CC2)N1 | 12.06
CS(=O)(=O)CCSC1CCN(c2ccccc2F)C1=O (centres undefined) | -2.152
Cc1ncc2c(n1)CN(CC1CCCCO1)CC2 (centres undefined) | 24.89
O=C(O)C(F)(F)F.[H][C@]12CCN(CC3CC3)C(=O)[C@]1([H])CN(C1CCOCC1)C2 | -1.576
[H][C@]12CC[C@]([H])(CN(C(=O)c3ccc(C(C)=O)s3)C1)N(Cc1ccccc1)C2 | 9.144
CC(C)CCC(=O)N1CCCC2(CCN(Cc3ccccc3C#N)C2)C1 (centres undefined) | -4.669
[H][C@@]12CN(Cc3cc4ccccc4s3)C[C@]1([H])N(Cc1ccccn1)C(=O)O2 | -1.841
CCOCC1CN(CCOc2ccc(Cl)cc2)Cc2c1cnn2C.O=C(O)C(F)(F)F.O=C(O)C(F)(F)F (centres undefined) | 2.61
CCN(CC)CCCNCc1cc2cc(C)cc(C)c2[nH]c1=O | -39.48
CSc1ccc(OCCN2CCC(n3cncn3)CC2)cc1 | -35.92
NC(=O)N1CCC2(CC1)CN(c1ccsc1)C(=O)CO2 | -23.38
Cc1nn(C)cc1C(=O)NCc1cc(N(C)C)nc2ccccc12 | 27.45
CN(Cc1nccn1CC(F)(F)F)C(=O)c1cccc(N(C)C)c1 | 10.75
OC(CN(Cc1ccccc1)Cc1cscn1)c1ccco1 (centres undefined) | 7.659
CC(C)CCN1Cc2c(C(=O)N3CCCC3)nn(C)c2C1.O=C(O)C(F)(F)F | 5.213
CCOC(=O)N1CCN(CC(=O)Nc2nnc(C)s2)CC1 | 23.77
Cn1ccnc1-c1cccc(NC(=O)NCCN2CCOCC2)c1 | 3.636
O=C(O)C(F)(F)F.O=C(c1ccccn1)N1CCc2ncc(Cn3cccn3)n2CC1 | 21.37
O=C(c1cnc(-c2ccco2)s1)N1CCCC1Cn1cccn1 (centres undefined) | 21.73
Cc1cc(C)n(C(=O)Cn2nc(C)c(I)c2C)n1 | 21.29
CC(C)NC(=O)C1CCN(c2nc3nc[nH]c(=O)c3s2)CC1 | 37.41
Cc1nc(CN2CCCC2c2[nH]ncc2C(=O)N(C)C)cs1 (centres undefined) | 17.56
OC(CN(Cc1ccccc1)Cc1ccncc1)c1cccs1 (centres undefined) | 9.914
O=C(NCC1(O)CCc2ccccc2C1)c1cccs1 (centres undefined) | 21.74
COc1ccccc1OCCNC(=O)CN1CCN(C)CC1C (centres undefined) | 0.6233
Cn1cc(CN2CCOC[C@H]2c2nc(C(C)(C)C)co2)c2ccccc21 | -16.14
CCn1nnc2c1C(COCC(=O)N(C)C)CN(Cc1ccco1)C2.O=C(O)C(F)(F)F (centres undefined) | -10.96
O=C(O)C1(Cc2cc(-c3ccc(F)cc3)no2)CCOCC1 | 12.85 and -22.34
Clc1cccc(CNc2cnn(CCN3CCCCC3)c2)c1 | 2.364
O=C(Nc1nccs1)NC1CCN(Cc2ccccc2)C1 (centres undefined) | 22.87
Cc1cn(CC(=O)NC2CCN(C(=O)C3CC3)CC2)c2ccccc12 | 21.85
[H][C@@]12CCN(S(=O)(=O)c3cccs3)[C@]1([H])CCC(=O)N2C | -2.626
Cc1cccnc1NC(=O)NC(C)Cn1cccn1 (centres undefined) | -21.78
Cc1nnc(NCC(c2ccco2)N2CCCCC2)c(C#N)c1C (centres undefined) | -1.603
COCCC(=O)N1CCCN(Cc2nccn2C(C)C)CC1 | 19.51

For reference, 7 entries once more:

{"structure": "CO[C@H]1CN(C(=O)OC(C)(C)C)CC1NCc1cc[nH]c1", "stereo": "some centres undefined", "percent effect": 16.01}
{"structure": "O=C(O)C1(Cc2cc(-c3ccc(F)cc3)no2)CCOCC1", "percent effect": "12.85 and -22.34"}
{"structure": "O=C(O)C(F)(F)F.[H][C@@]12COC[C@@H](CC(=O)N3CCCC3)[C@]1([H])CN(Cc1ccc(F)cc1)C2", "percent effect": 9.9}
{"structure": "Cn1ccnc1-c1cccc(NC(=O)NCCN2CCOCC2)c1", "percent effect": 3.636}
{"structure": "COc1ccc(C(=O)Nc2ccccc2C(C)C)c(OC)n1", "percent effect": 21.42}
{"structure": "Cc1cc(NC(=O)CN2C(=O)CC(C)(C)c3ccccc32)no1", "percent effect": 8.14}
{"structure": "O=C(O)C(F)(F)F.[H][C@]12CCN(CC3CC3)C(=O)[C@]1([H])CN(C1CCOCC1)C2", "percent effect": -1.576}